Paper PMC1502137

Sequences of proteins named here, by UniProt entry; tags and fusion partners are left off.
UniProt P42227, whole entry: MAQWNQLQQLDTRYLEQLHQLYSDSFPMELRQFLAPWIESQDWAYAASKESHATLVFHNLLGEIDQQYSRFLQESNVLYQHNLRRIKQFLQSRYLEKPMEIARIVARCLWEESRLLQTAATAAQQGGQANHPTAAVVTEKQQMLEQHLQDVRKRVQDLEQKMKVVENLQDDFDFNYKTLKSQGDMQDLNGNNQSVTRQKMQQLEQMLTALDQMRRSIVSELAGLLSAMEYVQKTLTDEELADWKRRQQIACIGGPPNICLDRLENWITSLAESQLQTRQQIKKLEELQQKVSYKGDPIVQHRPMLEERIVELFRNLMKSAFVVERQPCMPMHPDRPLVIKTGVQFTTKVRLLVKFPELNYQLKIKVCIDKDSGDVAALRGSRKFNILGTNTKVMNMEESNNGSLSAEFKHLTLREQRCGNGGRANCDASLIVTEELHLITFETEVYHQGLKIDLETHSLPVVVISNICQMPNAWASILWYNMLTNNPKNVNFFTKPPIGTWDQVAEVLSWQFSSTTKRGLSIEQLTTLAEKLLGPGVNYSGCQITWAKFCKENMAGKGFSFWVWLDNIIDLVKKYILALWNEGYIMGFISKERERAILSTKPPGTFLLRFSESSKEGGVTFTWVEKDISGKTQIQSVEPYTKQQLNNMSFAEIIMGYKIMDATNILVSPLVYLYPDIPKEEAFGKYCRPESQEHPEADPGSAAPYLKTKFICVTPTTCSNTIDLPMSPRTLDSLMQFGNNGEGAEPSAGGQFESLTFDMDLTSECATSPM

Target: Stat3alpha-FLAG (S3WT) (mouse) (UniProt P42227)
Test: EMSA
Settings: nuclear extract of S3WT6 cells, serum-starved 2 days, higher than parental, band eliminated by excess unlabeled probe; Panomics Gel-Shift kit binding buffer (composition not given), 3 ug nuclear extract, 10 ng biotin probe, 1 ug poly(dI-dC), 10 ul, 40 min at 18 C; 6% native PAGE, 0.5x TBE; protein in an extract; protein details: C-terminal FLAG; label: biotin

Sequence: GATCCTTCTGGGAATTCCTAGATC (double strand) [Stat3 response element probe (c-fos promoter)]
- binding result: binds

For at least one entry, the source does not settle the construct or the ends of the probe. Where cells or extracts were used, other partners may take part.
